The values that follow come from patent US20230173014A1 (GRANDES VINOS Y VIÑEDOS SA, priority 2021, published 2023).

Plain letter strings leave the end groups untold.

This series is described as follows: peptide synthesis. To be noted: whole synthesis.
Regarding NPKLVTIV (Synthesized peptide P2), the “purity (crude or final not stated)” value was determined as 99.2%. Take LDSPSEGRAPGAD (Synthesized peptide P6): the “purity (crude or final not stated)” value amounted to 98.5%. In the case of FKTTDQQTRTTVA (Synthesized peptide P1), the “purity (crude or final not stated)” value is on record as 97.8%. As for TVTNPARIA (Synthesized peptide P3), the “purity (crude or final not stated)” value amounted to 96.4%. On to LDSPSEGRAPG (Synthesized peptide P5), for which the “purity (crude or final not stated)” value came out at 96.9%.
